Here are results for 3 substances from article PMC11990775.

Chains of the proteins cited; added tags and fusions are not shown. Lines headed by an entry give the natural chain unless they say otherwise; changes in a name come on top.
UniProt Q9HC16: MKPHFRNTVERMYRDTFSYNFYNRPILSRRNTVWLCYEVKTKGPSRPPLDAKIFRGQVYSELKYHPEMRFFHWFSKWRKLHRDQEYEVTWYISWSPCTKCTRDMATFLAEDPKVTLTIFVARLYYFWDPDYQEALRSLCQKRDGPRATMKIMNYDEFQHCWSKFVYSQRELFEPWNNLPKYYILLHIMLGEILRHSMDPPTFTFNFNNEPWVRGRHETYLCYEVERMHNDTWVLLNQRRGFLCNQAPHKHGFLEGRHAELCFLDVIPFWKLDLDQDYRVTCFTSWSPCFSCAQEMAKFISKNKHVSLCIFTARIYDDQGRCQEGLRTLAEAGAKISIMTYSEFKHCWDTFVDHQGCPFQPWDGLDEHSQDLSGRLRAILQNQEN
UniProt Q99J72: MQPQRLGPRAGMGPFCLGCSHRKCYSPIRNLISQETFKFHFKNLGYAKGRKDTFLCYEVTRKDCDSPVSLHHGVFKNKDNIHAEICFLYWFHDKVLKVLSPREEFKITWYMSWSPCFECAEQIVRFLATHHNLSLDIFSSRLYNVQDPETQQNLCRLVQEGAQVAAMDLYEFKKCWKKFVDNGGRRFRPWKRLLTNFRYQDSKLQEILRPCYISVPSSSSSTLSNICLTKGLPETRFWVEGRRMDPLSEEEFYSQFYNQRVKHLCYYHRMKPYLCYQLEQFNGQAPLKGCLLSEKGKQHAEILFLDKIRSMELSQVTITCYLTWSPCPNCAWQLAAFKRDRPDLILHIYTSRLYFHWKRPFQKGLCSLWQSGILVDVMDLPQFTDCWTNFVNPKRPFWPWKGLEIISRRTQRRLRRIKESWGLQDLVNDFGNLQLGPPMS
UniProt P67809: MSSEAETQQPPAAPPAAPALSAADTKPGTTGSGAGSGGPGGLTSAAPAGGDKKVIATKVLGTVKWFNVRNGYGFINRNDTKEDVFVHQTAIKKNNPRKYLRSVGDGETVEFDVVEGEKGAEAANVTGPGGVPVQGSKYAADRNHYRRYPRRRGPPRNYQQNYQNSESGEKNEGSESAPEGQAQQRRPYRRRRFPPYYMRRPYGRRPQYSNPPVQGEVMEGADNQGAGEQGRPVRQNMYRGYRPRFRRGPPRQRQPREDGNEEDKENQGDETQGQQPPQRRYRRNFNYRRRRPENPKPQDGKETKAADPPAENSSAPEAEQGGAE
UniProt O43143: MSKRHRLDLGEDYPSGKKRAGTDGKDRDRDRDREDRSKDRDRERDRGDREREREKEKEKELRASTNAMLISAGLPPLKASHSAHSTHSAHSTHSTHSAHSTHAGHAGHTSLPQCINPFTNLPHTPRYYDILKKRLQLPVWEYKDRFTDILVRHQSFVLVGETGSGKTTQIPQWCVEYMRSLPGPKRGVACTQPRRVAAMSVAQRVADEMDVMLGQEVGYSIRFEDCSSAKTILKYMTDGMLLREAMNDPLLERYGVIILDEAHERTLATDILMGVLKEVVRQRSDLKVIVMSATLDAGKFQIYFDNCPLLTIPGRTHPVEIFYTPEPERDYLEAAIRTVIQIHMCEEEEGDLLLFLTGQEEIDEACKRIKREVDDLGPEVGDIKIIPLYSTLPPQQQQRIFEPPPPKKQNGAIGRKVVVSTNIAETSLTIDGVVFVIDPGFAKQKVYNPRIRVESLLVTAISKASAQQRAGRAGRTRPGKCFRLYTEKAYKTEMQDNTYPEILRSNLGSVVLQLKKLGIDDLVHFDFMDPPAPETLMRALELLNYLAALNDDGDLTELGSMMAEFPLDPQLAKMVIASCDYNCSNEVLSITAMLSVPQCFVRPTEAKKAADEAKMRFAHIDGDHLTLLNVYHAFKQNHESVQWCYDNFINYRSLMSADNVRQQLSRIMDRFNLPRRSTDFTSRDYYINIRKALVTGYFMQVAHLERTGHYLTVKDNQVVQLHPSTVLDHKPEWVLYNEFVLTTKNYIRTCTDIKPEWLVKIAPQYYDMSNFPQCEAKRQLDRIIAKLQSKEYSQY

Assay [1] addresses FLAG-tagged human APOBEC3G (human) (UniProt Q9HC16). Put plainly: affinity purification with mass spectrometry; HEK293T cells transfected with FLAG-tagged bait; lysate with anti-FLAG antibody and protein A/G Plus-agarose; SDS gel, Coomassie-stained bands cut out and identified by LC-MS.
The target in assay [2] is FLAG-tagged full-length mouse APOBEC3 (containing exon 5) (mouse) (UniProt Q99J72). The description is as above.

No constants are given. Whether binding was seen depends on the method and setting. Binding seen in cells or lysates may run through a third protein. Here binding means that the protein was enriched with, or labelled near, the bait; the list need not be complete.

As to “Y-box binding protein 1 (YB1), endogenous in 293T cells (from UniProt P67809 1-324)”, the binding result in assay [1] and in assay [2] was “binds” in each case.

For “hnRNPK, endogenous in 293T cells (from UniProt P61978 1-463)”, the binding entry in assay [1] and in assay [2] was “binds” each time.

On to “DEAH-box helicase 15 (DHX15), endogenous in 293T cells (from UniProt O43143 1-795)”, for which the binding result in assay [2] was “binds”.
